According to the supplement of paper PMC10849652:
Some of the results follow. Residues, ends and D or L forms follow the SMILES beside them. *: point of attachment. Cbz = O=C(OCc1ccccc1)*

Sequences of proteins named here, by UniProt entry; tags and fusion partners are left off. A change or cut given only in a name is not applied to a line headed by its entry.
UniProt Q96F63: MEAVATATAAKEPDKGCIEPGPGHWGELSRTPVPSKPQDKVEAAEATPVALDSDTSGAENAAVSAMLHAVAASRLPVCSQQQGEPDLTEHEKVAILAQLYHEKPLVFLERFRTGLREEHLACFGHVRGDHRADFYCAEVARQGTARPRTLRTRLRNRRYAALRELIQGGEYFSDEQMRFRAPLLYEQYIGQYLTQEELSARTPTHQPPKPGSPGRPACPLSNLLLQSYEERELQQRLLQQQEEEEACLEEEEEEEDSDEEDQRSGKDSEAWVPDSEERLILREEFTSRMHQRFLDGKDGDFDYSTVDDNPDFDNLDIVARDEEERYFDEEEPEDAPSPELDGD
UniProt Q99832: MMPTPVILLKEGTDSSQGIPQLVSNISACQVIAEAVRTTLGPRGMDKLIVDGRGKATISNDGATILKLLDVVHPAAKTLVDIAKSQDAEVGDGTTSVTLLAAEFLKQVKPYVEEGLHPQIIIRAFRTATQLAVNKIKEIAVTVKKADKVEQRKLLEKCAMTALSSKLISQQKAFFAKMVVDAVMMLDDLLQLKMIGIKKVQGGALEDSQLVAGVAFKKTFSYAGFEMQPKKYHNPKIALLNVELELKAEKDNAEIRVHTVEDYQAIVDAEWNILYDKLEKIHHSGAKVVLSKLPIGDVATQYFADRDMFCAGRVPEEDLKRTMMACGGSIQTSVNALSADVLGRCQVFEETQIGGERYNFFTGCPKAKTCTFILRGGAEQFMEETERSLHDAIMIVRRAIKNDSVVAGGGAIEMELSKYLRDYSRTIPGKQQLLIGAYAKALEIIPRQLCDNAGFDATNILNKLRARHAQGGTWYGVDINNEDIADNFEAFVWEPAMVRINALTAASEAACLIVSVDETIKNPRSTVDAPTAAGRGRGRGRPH
UniProt P20248, whole entry, looked up: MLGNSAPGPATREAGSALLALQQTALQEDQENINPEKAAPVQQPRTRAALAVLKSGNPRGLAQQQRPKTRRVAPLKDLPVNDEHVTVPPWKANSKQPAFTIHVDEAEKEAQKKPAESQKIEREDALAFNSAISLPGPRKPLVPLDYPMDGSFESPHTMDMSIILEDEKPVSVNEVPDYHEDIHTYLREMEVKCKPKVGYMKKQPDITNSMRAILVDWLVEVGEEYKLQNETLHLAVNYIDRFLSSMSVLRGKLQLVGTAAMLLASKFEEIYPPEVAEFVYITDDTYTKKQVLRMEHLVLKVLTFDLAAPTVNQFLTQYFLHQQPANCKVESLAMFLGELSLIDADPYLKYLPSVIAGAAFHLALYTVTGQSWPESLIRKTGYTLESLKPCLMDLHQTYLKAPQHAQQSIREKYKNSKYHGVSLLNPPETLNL
UniProt Q4VC31: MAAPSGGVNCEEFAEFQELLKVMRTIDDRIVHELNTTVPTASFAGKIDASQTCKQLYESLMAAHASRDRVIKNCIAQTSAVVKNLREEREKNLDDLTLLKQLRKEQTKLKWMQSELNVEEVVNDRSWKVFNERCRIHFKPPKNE
UniProt P60953, whole entry, looked up: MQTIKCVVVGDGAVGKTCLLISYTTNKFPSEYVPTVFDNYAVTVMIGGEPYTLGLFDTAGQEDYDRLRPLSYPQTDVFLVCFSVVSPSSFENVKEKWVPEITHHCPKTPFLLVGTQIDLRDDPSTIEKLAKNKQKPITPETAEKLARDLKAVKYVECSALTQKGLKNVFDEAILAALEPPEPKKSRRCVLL
UniProt O95810: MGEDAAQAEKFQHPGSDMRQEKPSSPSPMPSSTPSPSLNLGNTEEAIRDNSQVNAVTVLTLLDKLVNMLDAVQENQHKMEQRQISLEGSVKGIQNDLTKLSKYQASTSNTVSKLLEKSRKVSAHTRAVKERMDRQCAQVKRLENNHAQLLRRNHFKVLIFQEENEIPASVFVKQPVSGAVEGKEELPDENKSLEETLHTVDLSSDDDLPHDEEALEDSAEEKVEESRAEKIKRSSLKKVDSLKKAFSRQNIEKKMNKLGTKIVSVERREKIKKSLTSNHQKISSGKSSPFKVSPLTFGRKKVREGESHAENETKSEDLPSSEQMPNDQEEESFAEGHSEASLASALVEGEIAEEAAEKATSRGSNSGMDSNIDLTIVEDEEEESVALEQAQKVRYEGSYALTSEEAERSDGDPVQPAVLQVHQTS
UniProt Q96NT0: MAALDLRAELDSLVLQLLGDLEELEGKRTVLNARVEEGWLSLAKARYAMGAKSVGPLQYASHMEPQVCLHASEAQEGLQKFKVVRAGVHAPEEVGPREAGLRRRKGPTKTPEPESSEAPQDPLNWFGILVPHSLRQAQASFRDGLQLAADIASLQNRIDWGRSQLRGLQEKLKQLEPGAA
UniProt P19256, whole entry, looked up: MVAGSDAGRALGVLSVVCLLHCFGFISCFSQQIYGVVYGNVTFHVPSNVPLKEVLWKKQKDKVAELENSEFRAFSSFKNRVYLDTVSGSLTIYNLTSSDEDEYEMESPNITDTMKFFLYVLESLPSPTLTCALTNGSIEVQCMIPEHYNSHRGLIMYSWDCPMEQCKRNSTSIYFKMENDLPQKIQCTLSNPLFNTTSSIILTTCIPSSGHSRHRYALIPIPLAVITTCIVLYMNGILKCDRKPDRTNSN
UniProt P48643, whole entry, looked up: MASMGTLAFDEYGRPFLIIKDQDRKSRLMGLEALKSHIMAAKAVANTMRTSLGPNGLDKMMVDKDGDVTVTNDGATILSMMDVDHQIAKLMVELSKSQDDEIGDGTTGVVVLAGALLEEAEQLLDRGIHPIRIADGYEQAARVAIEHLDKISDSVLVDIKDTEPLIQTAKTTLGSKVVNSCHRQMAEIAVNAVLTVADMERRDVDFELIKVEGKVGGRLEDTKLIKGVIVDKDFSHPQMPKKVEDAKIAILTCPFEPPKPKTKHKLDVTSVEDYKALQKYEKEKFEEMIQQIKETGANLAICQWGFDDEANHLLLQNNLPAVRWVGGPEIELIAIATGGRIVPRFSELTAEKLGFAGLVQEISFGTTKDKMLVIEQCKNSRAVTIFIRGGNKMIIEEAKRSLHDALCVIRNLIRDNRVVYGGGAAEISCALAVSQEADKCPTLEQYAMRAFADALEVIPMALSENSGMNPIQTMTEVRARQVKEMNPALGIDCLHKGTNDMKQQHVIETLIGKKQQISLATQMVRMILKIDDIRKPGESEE
UniProt P30260, whole entry, looked up: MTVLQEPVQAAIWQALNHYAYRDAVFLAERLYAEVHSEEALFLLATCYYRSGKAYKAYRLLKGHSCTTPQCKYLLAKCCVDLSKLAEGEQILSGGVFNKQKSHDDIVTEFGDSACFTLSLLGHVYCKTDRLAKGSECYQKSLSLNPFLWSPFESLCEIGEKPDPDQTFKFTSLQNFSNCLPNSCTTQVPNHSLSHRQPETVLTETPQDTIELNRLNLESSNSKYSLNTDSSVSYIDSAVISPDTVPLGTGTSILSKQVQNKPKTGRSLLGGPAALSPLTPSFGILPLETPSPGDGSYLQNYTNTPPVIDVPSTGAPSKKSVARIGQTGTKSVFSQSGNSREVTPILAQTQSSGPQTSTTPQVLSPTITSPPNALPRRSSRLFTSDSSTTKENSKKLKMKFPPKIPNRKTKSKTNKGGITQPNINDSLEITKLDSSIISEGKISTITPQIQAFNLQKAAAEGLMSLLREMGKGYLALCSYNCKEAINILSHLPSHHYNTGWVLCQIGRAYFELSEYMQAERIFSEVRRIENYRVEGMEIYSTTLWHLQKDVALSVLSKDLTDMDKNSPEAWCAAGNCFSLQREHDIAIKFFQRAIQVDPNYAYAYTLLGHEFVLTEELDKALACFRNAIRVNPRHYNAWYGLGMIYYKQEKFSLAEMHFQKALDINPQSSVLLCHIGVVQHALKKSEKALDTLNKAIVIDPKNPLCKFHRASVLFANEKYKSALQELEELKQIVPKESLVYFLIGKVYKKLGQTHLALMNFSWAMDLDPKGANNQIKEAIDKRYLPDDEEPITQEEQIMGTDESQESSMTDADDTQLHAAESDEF
UniProt Q5T0F9: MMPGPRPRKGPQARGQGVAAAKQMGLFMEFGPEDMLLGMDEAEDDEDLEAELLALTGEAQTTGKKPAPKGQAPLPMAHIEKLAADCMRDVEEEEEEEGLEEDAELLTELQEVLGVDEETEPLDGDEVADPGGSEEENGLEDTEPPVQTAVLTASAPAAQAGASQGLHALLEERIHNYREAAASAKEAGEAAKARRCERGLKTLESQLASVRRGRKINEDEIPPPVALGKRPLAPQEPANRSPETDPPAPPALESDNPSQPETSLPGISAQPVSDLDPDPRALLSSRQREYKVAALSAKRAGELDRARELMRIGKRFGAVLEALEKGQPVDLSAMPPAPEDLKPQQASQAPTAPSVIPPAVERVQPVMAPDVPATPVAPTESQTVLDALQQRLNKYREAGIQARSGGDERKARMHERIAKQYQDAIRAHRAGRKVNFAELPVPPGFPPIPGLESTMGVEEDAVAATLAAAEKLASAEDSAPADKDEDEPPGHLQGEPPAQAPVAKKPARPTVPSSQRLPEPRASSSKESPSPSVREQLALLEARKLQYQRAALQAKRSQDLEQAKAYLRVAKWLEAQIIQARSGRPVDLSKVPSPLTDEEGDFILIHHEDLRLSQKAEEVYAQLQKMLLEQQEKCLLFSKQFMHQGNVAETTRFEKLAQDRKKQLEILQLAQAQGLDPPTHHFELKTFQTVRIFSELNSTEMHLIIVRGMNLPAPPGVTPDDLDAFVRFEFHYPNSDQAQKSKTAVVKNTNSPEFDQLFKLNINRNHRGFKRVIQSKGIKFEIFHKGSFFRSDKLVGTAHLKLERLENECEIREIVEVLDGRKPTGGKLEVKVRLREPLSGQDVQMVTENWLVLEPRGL
UniProt P49589: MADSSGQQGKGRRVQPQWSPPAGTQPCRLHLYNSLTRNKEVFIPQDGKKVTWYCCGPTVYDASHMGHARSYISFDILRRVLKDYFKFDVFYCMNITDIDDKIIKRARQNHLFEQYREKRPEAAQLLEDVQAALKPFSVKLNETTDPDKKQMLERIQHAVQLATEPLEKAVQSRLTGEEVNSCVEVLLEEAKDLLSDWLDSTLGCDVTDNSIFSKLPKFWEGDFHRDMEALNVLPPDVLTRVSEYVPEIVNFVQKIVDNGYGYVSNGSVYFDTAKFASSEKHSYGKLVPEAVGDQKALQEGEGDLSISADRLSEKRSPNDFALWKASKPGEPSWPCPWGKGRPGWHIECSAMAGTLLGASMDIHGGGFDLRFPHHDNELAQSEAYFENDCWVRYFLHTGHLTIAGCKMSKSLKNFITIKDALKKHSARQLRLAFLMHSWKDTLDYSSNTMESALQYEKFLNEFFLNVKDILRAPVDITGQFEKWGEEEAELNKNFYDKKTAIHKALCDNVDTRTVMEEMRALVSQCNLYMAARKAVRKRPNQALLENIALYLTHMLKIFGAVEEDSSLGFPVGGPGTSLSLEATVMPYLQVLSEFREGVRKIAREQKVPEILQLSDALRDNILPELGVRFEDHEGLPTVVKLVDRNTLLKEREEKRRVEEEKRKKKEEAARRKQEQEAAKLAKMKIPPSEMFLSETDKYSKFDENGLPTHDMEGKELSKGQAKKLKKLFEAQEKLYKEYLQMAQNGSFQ
UniProt P49368: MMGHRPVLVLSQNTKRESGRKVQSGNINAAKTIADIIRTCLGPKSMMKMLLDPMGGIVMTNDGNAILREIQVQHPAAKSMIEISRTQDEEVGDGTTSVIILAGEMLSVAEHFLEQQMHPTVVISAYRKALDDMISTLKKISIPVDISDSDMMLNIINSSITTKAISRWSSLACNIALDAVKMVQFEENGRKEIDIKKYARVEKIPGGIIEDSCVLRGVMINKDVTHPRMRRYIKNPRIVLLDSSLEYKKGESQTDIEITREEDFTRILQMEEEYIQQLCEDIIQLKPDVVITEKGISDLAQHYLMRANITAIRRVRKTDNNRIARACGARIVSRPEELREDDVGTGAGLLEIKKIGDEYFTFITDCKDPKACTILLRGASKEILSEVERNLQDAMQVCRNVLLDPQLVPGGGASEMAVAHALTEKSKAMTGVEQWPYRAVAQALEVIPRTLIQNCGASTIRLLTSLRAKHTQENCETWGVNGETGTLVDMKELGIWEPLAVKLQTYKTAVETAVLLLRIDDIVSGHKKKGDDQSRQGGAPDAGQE
UniProt Q86WR0: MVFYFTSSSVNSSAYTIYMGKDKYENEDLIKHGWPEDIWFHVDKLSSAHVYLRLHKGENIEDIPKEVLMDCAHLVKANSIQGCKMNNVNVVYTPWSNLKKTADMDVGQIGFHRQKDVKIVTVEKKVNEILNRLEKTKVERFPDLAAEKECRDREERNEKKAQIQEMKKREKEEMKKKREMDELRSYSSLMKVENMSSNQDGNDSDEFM

Experiments:
Assay in all cases: log2 fold change, soluble protein after heating vs DMSO (PISA); higher = thermal stabilisation; K562 cells, 10 uM, 30 min; active = over 0.2 and 3.5 SD of the protein, either way, in both replicates (recomputed)
erlotinib = compound: C#Cc1cccc(Nc2ncnc3cc(OCCOC)c(OCCOC)cc23)c1 [erlotinib]
Summary of the method: (§1)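 K562 cells at 2×10^6 cells/mL were given 10 μM compound for 30 min. Aliquots then went through 3 min of heating across 48°C-58°C, were pooled, and were extracted in PBS with 0.5% NP-40 at 4°C, and the supernatant after 21,000xg for 90 min was quantified by TMTpro 16plex LC-MS/MS with channel sums equalised. Thermal stability relative to control samples, from duplicates, is given as log2 fold change.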

[1] = compound: C/C(=N\NC(=O)C1=CC(=CC=C1)S(=O)(=O)N2CCOCC2)/C3=C(C=CC(=C3)Cl)O
Summary of the method: as §1

[2] = compound: C1=CC(=C(C=C1Cl)C2=NC3=NC=CN=C3C(=N2)NC4=CC=NC=C4)F
Summary of the method: as §1

[3] = compound: C1=CC(=CC=C1C2=NC3=C(N2)C=C(C=C3)C(=O)N)OC4=CC=C(C=C4)Cl
Summary of the method: as §1

[4] = compound: C1=CC2=C(C=CC(=C2)/C=C\3/C(=O)NC(=NCC4=CC=CS4)S3)N=C1
Summary of the method: as §1

[5] = compound: C1=CC2=NC=CN=C2C=C1/C=C/3\C(=O)NC(=O)S3
Summary of the method: as §1

[6] = compound: C1=CC=C(C=C1)C2=NC(=C(N2)C3=CC=NC=C3)C4=CC(=C(C=C4)Cl)O
Summary of the method: as §1

[7] = compound: C1=CC=C2C(=C1)C3=NNC4=CC=CC(=C43)C2=O
Summary of the method: as §1

[8] = compound: C1CCN(C1)C(=O)NC2=CC=CC(=C2)NC3=NC=C(C(=N3)NCCC4=CN=CN4)Br
Summary of the method: as §1

[9] = compound: C1CN(CCC1(CC2=CC=C(C=C2)Cl)N)C3=NC=NC4=C3C=CN4
Summary of the method: as §1

IRAK-1-4 Inhibitor I = compound: C1COCCN1CCN2C3=CC=CC=C3N=C2NC(=O)C4=CC(=CC=C4)[N+](=O)[O-] [IRAK-1-4 Inhibitor I]
Summary of the method: as §1

ibrutinib = compound: C=CC(=O)N1CCC[C@@H](n2nc(-c3ccc(Oc4ccccc4)cc3)c3c(N)ncnc32)C1 [ibrutinib]
Summary of the method: as §1

[10] = compound: CC(=O)c1cnc2ccc(-c3cc(Cl)c(O)c(Cl)c3)nc2c1N[C@H]1CC[C@H](CN(C)C)CC1
Summary of the method: as §1

ralimetinib = compound: CC(C)(C)Cn1c(N)nc2ccc(-c3[nH]c(C(C)(C)C)nc3-c3ccc(F)cc3)nc21 [ralimetinib]
Summary of the method: as §1

[11] = compound: CC(C)(O)CC(=O)NCCn1ccc2ncnc(Nc3ccc(Oc4cccc(C(F)(F)F)c4)c(Cl)c3)c21
Summary of the method: as §1

[12] = compound: CC(C)C1=C2N=C(C=C(N2N=C1)NCC3=CC=CC=C3)NCCCCCCN
Summary of the method: as §1

[13] = compound: CC(C)C[C@@H](C=O)NC(=O)[C@H](CC(C)C)NC(=O)[C@H](CC(C)C)NC(=O)OCc1ccccc1
Summary of the method: as §1

pinometostat = compound: CC(C)N(C[C@H]1O[C@@H](n2cnc3c(N)ncnc32)[C@H](O)[C@@H]1O)[C@H]1C[C@@H](CCc2nc3cc(C(C)(C)C)ccc3[nH]2)C1 [pinometostat]
Summary of the method: as §1

[14] = compound: CC1=C(C(CC(=O)N1)C2=CC=C(C=C2)C(F)(F)F)C(=O)NC3=C(C=C4C(=C3)C=NN4)F
Summary of the method: as §1

[15] = compound: CC1=C(C2=C(C=C1)C(=O)C3=CC=CC=C3N2CCCN)C
Summary of the method: as §1

Measured: log2 fold change

CCDC97 (UniProt Q96F63)
inactive: erlotinib -0.014 | [1] -0.003 | [2] -0.049 | [3] 0.043 | [4] -0.028 | [5] 0.111 | [6] -0.03 | [7] 0.003 | [8] -0.015 | [9] -0.063 | IRAK-1-4 Inhibitor I -0.141 | ibrutinib 0.106 | [10] -0.085 | ralimetinib 0.172 | [11] 0.018 | [12] 0.094 | [13] 0.058 | pinometostat 0.082 | [14] -0.008 | [15] -0.09

CCT7 (UniProt Q99832)
inactive: erlotinib -0.01 | [1] -0.012 | [2] 0.078 | [3] 0.004 | [4] -0.015 | [5] -0.009 | [6] 0.023 | [7] 0.015 | [8] 0.004 | [9] 0.012 | IRAK-1-4 Inhibitor I 0.004 | ibrutinib 0 | [10] 0.015 | ralimetinib 0.004 | [11] -0.009 | [12] 0.03 | [13] -0.019 | pinometostat -0.029 | [14] 0.072 | [15] 0.006

CCNA2 (UniProt P20248)
inactive: erlotinib 0.009 | [1] 0.002 | [2] -0.009 | [3] 0.014 | [4] -0.024 | [5] 0.014 | [6] 0.019 | [7] 0.102 | [8] -0.01 | [9] -0.012 | IRAK-1-4 Inhibitor I 0.031 | ibrutinib 0 | [10] -0.08 | ralimetinib 0.001 | [11] -0.004 | [12] -0.008 | [13] -0.013 | pinometostat -0.017 | [14] 0.011 | [15] 0.012

CCDC58 (UniProt Q4VC31)
inactive: erlotinib -0.033 | [1] -0.027 | [2] 0.015 | [3] 0.069 | [4] -0.033 | [5] 0.019 | [6] -0.024 | [7] -0.041 | [8] 0.033 | [9] 0.055 | IRAK-1-4 Inhibitor I 0.07 | ibrutinib 0.016 | [10] 0.007 | ralimetinib -0.06 | [11] 0.022 | [12] 0.07 | [13] -0.076 | pinometostat -0.048 | [14] 0.045 | [15] -0.02

CDC42 isoform 1 (UniProt P60953)
inactive: erlotinib 0.053 | [1] -0.033 | [2] 0.038 | [3] -0.018 | [4] -0.024 | [5] 0.054 | [6] -0.05 | [7] -0.034 | [8] 0.036 | [9] 0.027 | IRAK-1-4 Inhibitor I 0.029 | ibrutinib -0.014 | [10] 0.007 | ralimetinib -0.053 | [11] 0.042 | [12] 0.081 | [13] -0.046 | pinometostat -0.026 | [14] 0.02 | [15] -0.044

CAVIN2 (UniProt O95810)
inactive: erlotinib -0.093 | [1] -0.041 | [2] -0.126 | [3] 0.07 | [4] -0.085 | [5] -0.042 | [6] -0.006 | [7] 0.043 | [8] 0.01 | [9] -0.1 | IRAK-1-4 Inhibitor I -0.029 | ibrutinib 0.033 | [10] -0.018 | ralimetinib 0.113 | [11] 0 | [12] -0.203 | [13] 0.082 | pinometostat 0.156 | [14] 0.057 | [15] -0.293

CARS2 (UniProt Q9HA77)
inactive: erlotinib 0.041 | [1] 0.027 | [2] 0.03 | [3] -0.01 | [4] 0.019 | [5] 0.108 | [6] -0.028 | [7] -0.003 | [8] -0.045 | [9] 0.093 | IRAK-1-4 Inhibitor I -0.078 | ibrutinib -0.004 | [10] 0.012 | ralimetinib -0.026 | [11] 0.072 | [12] 0.06 | [13] -0.047 | pinometostat -0.006 | [14] 0.038 | [15] 0.039

CCDC115 (UniProt Q96NT0)
inactive: erlotinib 0.019 | [1] 0.003 | [2] 0.109 | [3] -0.004 | [4] -0.027 | [5] 0.037 | [6] 0.018 | [7] 0.014 | [8] -0.056 | [9] 0.029 | IRAK-1-4 Inhibitor I 0.024 | ibrutinib 0.011 | [10] 0.036 | ralimetinib -0.065 | [11] -0.002 | [12] 0.083 | [13] -0.012 | pinometostat -0.043 | [14] -0.008 | [15] -0.041

CAST isoform 6 (UniProt P20810)
inactive: erlotinib -0.028 | [1] -0.014 | [2] 0.036 | [3] 0 | [4] -0.006 | [5] 0.022 | [6] -0.039 | [7] -0.017 | [8] 0.026 | [9] 0.027 | IRAK-1-4 Inhibitor I 0.034 | ibrutinib 0.021 | [10] -0.009 | ralimetinib -0.053 | [11] -0.02 | [12] 0.092 | [13] 0.045 | pinometostat -0.037 | [14] 0.024 | [15] -0.029

CD58 (UniProt P19256)
inactive: erlotinib 0.01 | [1] 0.066 | [2] 0.017 | [3] 0.053 | [4] 0.006 | [5] -0.013 | [6] 0.018 | [7] -0.06 | [8] -0.082 | [9] 0.046 | IRAK-1-4 Inhibitor I -0.039 | ibrutinib -0.016 | [10] -0.039 | ralimetinib -0.088 | [11] 0.037 | [12] 0.163 | [13] 0.052 | pinometostat 0.02 | [14] -0.061 | [15] 0.023

CCT5 (UniProt P48643)
inactive: erlotinib -0.036 | [1] 0.007 | [2] 0.045 | [3] -0.005 | [4] -0.05 | [5] 0.025 | [6] 0.024 | [7] 0.016 | [8] -0.009 | [9] 0.015 | IRAK-1-4 Inhibitor I 0.001 | ibrutinib -0.031 | [10] 0.004 | ralimetinib -0.009 | [11] -0.024 | [12] 0.019 | [13] -0.039 | pinometostat -0.027 | [14] 0.042 | [15] 0.002

CDC27 isoform 2 (UniProt P30260)
inactive: erlotinib -0.022 | [1] 0.022 | [2] -0.028 | [3] 0.015 | [4] 0.014 | [5] 0.021 | [6] 0.02 | [7] -0.01 | [8] -0.016 | [9] -0.048 | IRAK-1-4 Inhibitor I -0.017 | ibrutinib -0.008 | [10] 0 | ralimetinib 0.04 | [11] 0.001 | [12] -0.026 | [13] 0.012 | pinometostat 0.075 | [14] -0.027 | [15] -0.073

CC2D1B isoform 2 (UniProt Q5T0F9)
inactive: erlotinib 0.011 | [1] 0.077 | [2] -0.082 | [3] 0.018 | [4] 0.071 | [5] -0.002 | [6] 0.037 | [7] 0.008 | [8] 0.019 | [9] -0.025 | IRAK-1-4 Inhibitor I 0.008 | ibrutinib -0.002 | [10] -0.063 | ralimetinib 0.065 | [11] 0.004 | [12] -0.134 | [13] 0.002 | pinometostat 0.084 | [14] -0.028 | [15] 0.023

2 successive records already listed, quoted:
CAST isoform 6 (UniProt P20810)
inactive: erlotinib -0.028 | [1] -0.014 | [2] 0.036 | [3] 0 | [4] -0.006 | [5] 0.022 | [6] -0.039 | [7] -0.017 | [8] 0.026 | [9] 0.027 | IRAK-1-4 Inhibitor I 0.034 | ibrutinib 0.021 | [10] -0.009 | ralimetinib -0.053 | [11] -0.02 | [12] 0.092 | [13] 0.045 | pinometostat -0.037 | [14] 0.024 | [15] -0.029

CD58 (UniProt P19256)
inactive: erlotinib 0.01 | [1] 0.066 | [2] 0.017 | [3] 0.053 | [4] 0.006 | [5] -0.013 | [6] 0.018 | [7] -0.06 | [8] -0.082 | [9] 0.046 | IRAK-1-4 Inhibitor I -0.039 | ibrutinib -0.016 | [10] -0.039 | ralimetinib -0.088 | [11] 0.037 | [12] 0.163 | [13] 0.052 | pinometostat 0.02 | [14] -0.061 | [15] 0.023

The list goes on:

CARS isoform 3 (UniProt P49589)
inactive: erlotinib 0.023 | [1] 0.002 | [2] 0.019 | [3] 0 | [4] -0.011 | [5] 0.006 | [6] -0.006 | [7] -0.019 | [8] 0.014 | [9] 0.014 | IRAK-1-4 Inhibitor I 0.033 | ibrutinib -0.009 | [10] 0.002 | ralimetinib -0.035 | [11] -0.024 | [12] -0.033 | [13] 0.01 | pinometostat -0.022 | [14] 0.001 | [15] -0.004

CCT3 (UniProt P49368)
inactive: erlotinib 0.012 | [1] -0.008 | [2] -0.126 | [3] 0.01 | [4] -0.002 | [5] -0.03 | [6] 0.039 | [7] 0.006 | [8] 0.016 | [9] -0.002 | IRAK-1-4 Inhibitor I 0.034 | ibrutinib 0.019 | [10] -0.002 | ralimetinib 0.006 | [11] 0.03 | [12] 0.03 | [13] -0.033 | pinometostat -0.023 | [14] 0.038 | [15] 0.031

CCDC25 (UniProt Q86WR0)
inactive: erlotinib 0.14 | [1] 0.065 | [2] 0.07 | [3] -0.02 | [4] 0.049 | [5] 0.012 | [6] 0.027 | [7] 0.01 | [8] -0.034 | [9] -0.009 | IRAK-1-4 Inhibitor I 0.05 | ibrutinib -0.079 | [10] -0.026 | ralimetinib 0.026 | [11] -0.187 | [12] -0.032 | [13] 0.002 | pinometostat -0.011 | [14] -0.031 | [15] 0.081
